From the supplement of paper PMC12067093, “Discovery and optimisation of a covalent ligand for TRIM25 and its application to targeted protein ubiquitination” (Chemical Science, 2025)
The list shows a part of the results.

Sequences of proteins named here, by UniProt entry; tags and fusion partners are left off. A change or cut given only in a name is not applied to a line headed by its entry.
UniProt Q03405, whole entry, looked up: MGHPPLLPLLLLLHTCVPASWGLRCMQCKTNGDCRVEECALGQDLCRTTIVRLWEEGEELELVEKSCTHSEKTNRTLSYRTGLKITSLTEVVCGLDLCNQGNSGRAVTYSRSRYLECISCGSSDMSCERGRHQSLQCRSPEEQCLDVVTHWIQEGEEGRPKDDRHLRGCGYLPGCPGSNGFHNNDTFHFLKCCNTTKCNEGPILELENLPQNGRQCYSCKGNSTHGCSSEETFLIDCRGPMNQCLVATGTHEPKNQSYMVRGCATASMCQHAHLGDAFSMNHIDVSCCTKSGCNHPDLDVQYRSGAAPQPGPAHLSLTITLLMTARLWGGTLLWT
UniProt P53350, whole entry, looked up: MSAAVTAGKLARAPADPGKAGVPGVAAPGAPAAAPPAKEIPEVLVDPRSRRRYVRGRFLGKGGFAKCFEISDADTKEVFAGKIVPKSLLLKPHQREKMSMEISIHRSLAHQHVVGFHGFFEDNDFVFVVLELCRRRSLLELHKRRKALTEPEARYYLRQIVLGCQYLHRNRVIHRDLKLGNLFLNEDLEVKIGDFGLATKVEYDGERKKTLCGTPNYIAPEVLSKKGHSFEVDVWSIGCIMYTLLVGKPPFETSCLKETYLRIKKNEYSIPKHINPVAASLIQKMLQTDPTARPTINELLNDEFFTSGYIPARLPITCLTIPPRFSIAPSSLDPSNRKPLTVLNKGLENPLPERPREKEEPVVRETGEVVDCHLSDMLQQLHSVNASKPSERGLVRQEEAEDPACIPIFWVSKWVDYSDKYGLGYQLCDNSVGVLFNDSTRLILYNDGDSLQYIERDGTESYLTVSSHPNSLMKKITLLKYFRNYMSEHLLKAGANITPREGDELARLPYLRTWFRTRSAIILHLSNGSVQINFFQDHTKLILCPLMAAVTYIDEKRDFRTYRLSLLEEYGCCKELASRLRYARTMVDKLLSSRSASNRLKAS
UniProt Q8TCS8: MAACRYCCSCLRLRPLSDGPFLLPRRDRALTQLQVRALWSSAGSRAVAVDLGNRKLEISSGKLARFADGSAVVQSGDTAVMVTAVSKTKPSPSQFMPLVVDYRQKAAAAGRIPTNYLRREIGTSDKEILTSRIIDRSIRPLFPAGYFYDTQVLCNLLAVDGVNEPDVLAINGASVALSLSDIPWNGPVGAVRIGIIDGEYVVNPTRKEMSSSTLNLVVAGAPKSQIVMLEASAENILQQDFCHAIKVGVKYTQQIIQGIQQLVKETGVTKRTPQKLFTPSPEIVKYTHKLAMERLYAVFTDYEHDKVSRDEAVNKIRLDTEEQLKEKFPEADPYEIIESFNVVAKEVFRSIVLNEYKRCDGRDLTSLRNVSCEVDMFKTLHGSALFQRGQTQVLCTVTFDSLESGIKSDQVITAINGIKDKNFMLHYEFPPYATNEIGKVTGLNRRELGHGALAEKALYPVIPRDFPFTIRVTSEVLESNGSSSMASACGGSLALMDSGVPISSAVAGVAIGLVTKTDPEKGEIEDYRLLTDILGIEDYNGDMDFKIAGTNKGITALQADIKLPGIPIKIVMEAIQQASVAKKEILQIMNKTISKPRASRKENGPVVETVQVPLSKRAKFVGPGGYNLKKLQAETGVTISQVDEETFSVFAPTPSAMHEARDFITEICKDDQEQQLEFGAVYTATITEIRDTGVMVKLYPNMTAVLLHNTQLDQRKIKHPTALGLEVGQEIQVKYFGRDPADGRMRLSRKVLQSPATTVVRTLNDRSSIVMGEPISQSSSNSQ
UniProt P27986, whole entry, looked up: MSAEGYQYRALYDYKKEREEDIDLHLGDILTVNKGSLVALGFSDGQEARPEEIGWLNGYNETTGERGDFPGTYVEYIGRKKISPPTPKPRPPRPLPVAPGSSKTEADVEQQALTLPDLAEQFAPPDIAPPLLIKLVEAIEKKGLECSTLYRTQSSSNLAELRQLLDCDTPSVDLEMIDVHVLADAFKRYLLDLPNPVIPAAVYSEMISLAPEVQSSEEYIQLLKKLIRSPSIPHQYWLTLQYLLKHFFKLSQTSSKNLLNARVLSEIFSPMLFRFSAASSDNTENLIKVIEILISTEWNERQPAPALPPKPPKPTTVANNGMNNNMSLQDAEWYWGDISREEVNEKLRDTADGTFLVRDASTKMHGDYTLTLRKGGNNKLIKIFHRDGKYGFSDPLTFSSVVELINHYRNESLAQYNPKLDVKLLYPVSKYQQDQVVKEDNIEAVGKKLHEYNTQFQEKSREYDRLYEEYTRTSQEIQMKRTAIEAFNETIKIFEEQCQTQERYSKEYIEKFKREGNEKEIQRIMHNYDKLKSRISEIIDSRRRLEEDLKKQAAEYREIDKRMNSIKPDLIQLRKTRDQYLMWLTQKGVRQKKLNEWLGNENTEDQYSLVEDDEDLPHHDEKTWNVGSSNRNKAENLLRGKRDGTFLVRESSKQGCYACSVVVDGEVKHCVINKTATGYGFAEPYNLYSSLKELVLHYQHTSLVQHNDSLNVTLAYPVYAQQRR
UniProt Q9NRX1: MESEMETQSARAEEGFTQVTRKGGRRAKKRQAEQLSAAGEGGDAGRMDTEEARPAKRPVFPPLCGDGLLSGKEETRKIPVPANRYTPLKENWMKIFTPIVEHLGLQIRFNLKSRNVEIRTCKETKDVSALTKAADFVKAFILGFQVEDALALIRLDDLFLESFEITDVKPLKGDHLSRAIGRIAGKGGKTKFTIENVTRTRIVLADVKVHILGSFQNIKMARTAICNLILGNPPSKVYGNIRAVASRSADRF
UniProt Q9UP65: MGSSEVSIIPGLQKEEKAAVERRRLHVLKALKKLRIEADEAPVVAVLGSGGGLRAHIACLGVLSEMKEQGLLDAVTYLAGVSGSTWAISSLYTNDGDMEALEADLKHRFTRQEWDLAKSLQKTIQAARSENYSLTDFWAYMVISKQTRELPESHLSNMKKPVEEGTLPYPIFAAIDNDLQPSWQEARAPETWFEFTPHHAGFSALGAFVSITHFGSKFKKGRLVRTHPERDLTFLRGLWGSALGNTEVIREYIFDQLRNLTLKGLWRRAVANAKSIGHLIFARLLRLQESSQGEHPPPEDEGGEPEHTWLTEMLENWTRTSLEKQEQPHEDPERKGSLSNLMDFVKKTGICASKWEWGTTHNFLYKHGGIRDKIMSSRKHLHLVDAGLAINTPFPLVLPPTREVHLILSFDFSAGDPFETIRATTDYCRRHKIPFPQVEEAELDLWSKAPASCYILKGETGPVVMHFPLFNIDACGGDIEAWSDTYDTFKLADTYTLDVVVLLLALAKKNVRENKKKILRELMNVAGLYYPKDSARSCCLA
UniProt Q9NVS9: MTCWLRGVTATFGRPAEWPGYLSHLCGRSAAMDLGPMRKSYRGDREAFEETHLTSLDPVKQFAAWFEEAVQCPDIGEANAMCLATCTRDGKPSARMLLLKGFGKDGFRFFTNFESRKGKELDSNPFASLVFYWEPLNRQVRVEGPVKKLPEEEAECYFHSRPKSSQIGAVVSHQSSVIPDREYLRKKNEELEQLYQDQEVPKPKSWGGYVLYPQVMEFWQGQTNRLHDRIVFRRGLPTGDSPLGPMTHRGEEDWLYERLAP
UniProt Q96BK5: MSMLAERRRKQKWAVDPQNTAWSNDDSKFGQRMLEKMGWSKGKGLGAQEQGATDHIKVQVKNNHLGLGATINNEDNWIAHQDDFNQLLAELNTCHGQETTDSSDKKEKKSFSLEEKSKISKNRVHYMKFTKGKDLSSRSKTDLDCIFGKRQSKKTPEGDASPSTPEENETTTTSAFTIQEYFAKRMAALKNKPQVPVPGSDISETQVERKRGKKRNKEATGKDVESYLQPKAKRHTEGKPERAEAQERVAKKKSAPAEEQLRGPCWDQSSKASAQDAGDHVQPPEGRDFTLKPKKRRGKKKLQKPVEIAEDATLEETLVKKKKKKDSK
UniProt Q15126: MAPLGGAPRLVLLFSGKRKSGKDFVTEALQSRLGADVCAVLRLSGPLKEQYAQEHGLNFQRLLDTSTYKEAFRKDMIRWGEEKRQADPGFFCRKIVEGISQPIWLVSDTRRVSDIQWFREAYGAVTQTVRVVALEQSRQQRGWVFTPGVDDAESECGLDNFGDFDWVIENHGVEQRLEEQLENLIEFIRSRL
UniProt Q9Y263: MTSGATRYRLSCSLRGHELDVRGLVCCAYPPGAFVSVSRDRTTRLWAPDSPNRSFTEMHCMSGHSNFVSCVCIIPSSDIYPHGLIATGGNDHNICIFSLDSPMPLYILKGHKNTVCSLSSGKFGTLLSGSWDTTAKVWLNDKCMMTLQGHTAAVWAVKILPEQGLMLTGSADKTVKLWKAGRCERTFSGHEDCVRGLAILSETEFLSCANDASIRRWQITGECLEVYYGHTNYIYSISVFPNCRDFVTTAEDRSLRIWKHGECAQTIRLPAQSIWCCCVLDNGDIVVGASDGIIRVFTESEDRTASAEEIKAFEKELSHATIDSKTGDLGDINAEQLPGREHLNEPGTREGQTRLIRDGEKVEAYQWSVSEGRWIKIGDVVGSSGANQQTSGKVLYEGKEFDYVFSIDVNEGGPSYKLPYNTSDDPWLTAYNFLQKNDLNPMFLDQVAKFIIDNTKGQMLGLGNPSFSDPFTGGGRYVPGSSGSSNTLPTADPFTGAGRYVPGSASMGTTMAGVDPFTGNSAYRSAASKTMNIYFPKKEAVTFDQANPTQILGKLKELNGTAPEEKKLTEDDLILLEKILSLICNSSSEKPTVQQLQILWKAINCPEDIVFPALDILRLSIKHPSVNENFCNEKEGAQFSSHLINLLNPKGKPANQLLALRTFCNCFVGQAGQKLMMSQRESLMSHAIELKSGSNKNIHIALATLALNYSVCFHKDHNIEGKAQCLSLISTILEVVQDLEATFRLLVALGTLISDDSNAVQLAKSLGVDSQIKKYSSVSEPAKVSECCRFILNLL
UniProt Q01970, whole entry, looked up: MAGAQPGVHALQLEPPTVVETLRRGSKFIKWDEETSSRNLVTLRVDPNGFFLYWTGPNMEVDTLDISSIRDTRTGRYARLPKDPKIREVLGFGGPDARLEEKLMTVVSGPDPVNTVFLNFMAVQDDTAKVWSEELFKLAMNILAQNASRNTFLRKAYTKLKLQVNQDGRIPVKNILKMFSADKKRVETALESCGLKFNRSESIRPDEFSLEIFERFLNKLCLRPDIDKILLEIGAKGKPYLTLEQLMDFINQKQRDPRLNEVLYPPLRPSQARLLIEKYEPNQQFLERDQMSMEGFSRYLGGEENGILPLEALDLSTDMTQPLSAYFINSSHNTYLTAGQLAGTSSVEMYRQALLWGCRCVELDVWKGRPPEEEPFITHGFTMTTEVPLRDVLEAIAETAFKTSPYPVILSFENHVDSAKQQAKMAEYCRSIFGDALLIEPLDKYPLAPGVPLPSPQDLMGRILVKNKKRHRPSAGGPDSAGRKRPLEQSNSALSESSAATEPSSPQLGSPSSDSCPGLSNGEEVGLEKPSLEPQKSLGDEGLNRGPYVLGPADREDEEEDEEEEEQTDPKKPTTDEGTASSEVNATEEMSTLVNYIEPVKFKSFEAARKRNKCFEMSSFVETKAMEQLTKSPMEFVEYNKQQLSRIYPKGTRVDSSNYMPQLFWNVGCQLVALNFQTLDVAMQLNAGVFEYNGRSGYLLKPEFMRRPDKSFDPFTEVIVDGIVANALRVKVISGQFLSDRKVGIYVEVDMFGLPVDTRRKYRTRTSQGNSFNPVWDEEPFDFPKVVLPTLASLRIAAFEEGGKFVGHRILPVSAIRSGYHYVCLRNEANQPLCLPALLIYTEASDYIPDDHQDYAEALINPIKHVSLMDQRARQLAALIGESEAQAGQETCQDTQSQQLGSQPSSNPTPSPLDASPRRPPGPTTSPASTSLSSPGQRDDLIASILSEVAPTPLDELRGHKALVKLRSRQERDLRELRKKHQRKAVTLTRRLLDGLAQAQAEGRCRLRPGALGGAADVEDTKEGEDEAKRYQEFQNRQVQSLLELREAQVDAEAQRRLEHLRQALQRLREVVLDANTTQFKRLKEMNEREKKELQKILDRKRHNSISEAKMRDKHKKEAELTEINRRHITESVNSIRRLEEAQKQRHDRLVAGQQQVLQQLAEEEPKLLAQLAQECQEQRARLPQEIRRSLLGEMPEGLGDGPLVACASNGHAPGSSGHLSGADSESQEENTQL

Compound: Cc1cc(ccc1-c1ccccc1)C(=O)N1CCCN(CC1)C(=O)CCl [compound 10]
Assay: probe-labelled cysteine peptide fold change vs DMSO (competition) (log2 fold change); higher = less target engagement (more negative = stronger competition)
Details: THP-1, incubation time: 4 h
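Further: competitive profiling in live THP-1 cells: cysteine peptides tagged with an iodoacetamide desthiobiotin (IA-DTB) probe, intensity after compound treatment relative to DMSO-treated cells.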

Target | probe-labelled cysteine peptide fold change (10 µM) | probe-labelled cysteine peptide fold change (50 µM)
PLAUR_Q03405_46_VEECALGQDLCR (UniProt Q03405) | -0.361 | -0.36
PLK1_P53350_544_LILCPLMAAVTYIDEKR (UniProt P53350) | -0.0589 | -0.19
PKN3_Q6P5Z2_131_QGAENMTHTCASGTPK (UniProt Q6P5Z2) | -0.00333 | -0.199
PNKP_Q96T60_308_DFSCADR (UniProt Q96T60) | -0.268 | -0.0394
PIK3CD_O00329_90_RLCDVQPFLPVLR (UniProt O00329) | 0.0359 | -0.168
PLAUR_Q03405_39_VEECALGQDLCR (UniProt Q03405) | -0.246 | -0.236
PLCB2_Q00722_216_SFLMSLCPRPEIDEIFTSYHAK (UniProt Q00722) | 0.181 | -0.0219
PLEKHG2_Q9H7P9_405_RLWIHCLQR (UniProt Q9H7P9) | 0.0514 | -0.202
PNPT1_Q8TCS8_395_GQTQVLCTVTFDSLESGIK (UniProt Q8TCS8) | 0.148 | 0.502
PIK3R1_P27986_167_QLLDCDTPSVDLEMIDVHVLADAFKR (UniProt P27986) | 0.0273 | 0.0689
PLOD3_O60568_698_YDCVISSPR (UniProt O60568) | 0.0414 | 0.265
PMPCA_Q10713_266_MVLAGVGVEHEHLVDCAR (UniProt Q10713) | -0.00401 | 0.131
PLXNB2_O15031_555_RAQGEVQLTVSPLPALSEEDELLCLFGESPPHPAR (UniProt O15031) | 0.228 | 0.529
PNO1_Q9NRX1_226_TAICNLILGNPPSK (UniProt Q9NRX1) | 0.0956 | -0.0122
PLA2G4C_Q9UP65_351_KTGICASK (UniProt Q9UP65) | -0.289 | -1.38
PNPO_Q9NVS9_156_KLPEEEAECYFHSR (UniProt Q9NVS9) | -0.0304 | -0.173
PINX1_Q96BK5_145_SKTDLDCIFGK (UniProt Q96BK5) | -0.232 | -0.582

Quoted from the listing:
Value of PLXNB2_O15031_555_RAQGEVQLTVSPLPALSEEDELLCLFGESPPHPAR (UniProt O15031) under probe-labelled cysteine peptide fold change (10 µM): 0.228
Value of PINX1_Q96BK5_145_SKTDLDCIFGK (UniProt Q96BK5) under probe-labelled cysteine peptide fold change (10 µM): -0.232

Later entries.

Target | probe-labelled cysteine peptide fold change (10 µM) | probe-labelled cysteine peptide fold change (50 µM)
PKM_P14618_31_PHSEAGTAFIQTQQLHAAMADTFLEHMCR (UniProt P14618) | 0.0837 | 0.0247
PIK3R1_P27986_498_IFEEQCQTQER (UniProt P27986) | -0.0182 | 0.0754
PMVK_Q15126_92_RQADPGFFCR (UniProt Q15126) | -0.0632 | -0.151
PNKP_Q96T60_353_SGPLCLPESR (UniProt Q96T60) | -0.232 | -0.176
PLXNA1_Q9UIW2_1525_GLDCDTVTQAK (UniProt Q9UIW2) | -0.217 | -0.117
PNP_P00491_31_HRPQVAIICGSGLGGLTDKLTQAQIFDYGEIPNFPR (UniProt P00491) | -0.185 | -0.437
PLAA_Q9Y263_26_GLVCCAYPPGAFVSVSR (UniProt Q9Y263) | 0.0151 | -0.407
PLK1_P53350_372_ETGEVVDCHLSDMLQQLHSVNASKPSER (UniProt P53350) | -0.0492 | -0.49
POC1A_Q8NBT0_5_AAPCAEDPSLER (UniProt Q8NBT0) | 0.0986 | -0.0566
PLCB3_Q01970_1176_LLAQLAQECQEQR (UniProt Q01970) | 0.3 | 0.18
PNPT1_Q8TCS8_668_DFITEICK (UniProt Q8TCS8) | 0.0622 | -0.0875
PNPT1_Q8TCS8_359_CDGRDLTSLR (UniProt Q8TCS8) | -0.161 | -0.394
PLPBP_O94903_86_ILSLCPEIK (UniProt O94903) | 0.0604 | -0.0311
PLAA_Q9Y263_193_TFSGHEDCVR (UniProt Q9Y263) | -0.0329 | -0.164
PLCB3_Q01970_360_CVELDVWK (UniProt Q01970) | 0.0505 | -0.317
PLXNB2_O15031_279_DPDIHAAAFGTCLAASVAAPGSGR (UniProt O15031) | -0.288 | -0.144
PIK3R4_Q99570_1097_ILDQKEDGCVVDMHHFNSGAQSVLAYATVNGSLVGWDLR (UniProt Q99570) | 0.126 | 0.0722
